Consider one compound from US20250065147A1, “SYSTEMS AND METHODS FOR PHOTODYNAMIC THERAPY” (Virginia Commonwealth University, priority 2023, published 2025).

This data set has as its system HCC (human liver cancer). The data set is described as follows: PDT with ICG (809 nm laser) in PDOX mouse model. It is filed as in vivo. The text has this:
We set up a study of PDT with ICG using patient derived orthotopic xenograft (PDOX) mouse model (FIG. 7). In the PDOX model, the mouse liver has human liver cancer. […] We then found the optimal laser wavelength that liver-ICG can absorb with maximum intensity which was 809 nm (FIG. 2). We set up the laser to treat HCC with PDT with the setting numbers in Table 1.

Take `CC1(C)C(/C=C/C=C/C=C/C=C2\N(CCCCS(=O)(=O)O)c3ccc4ccccc4c3C2(C)C)=[N+](CCCCS(=O)(=O)[O-])c2ccc3ccccc3c21` [ICG, indocyanine green]: the “finding on IVIS imaging after laser” value (24-48 hrs after applying 809 nm laser (Table 1 settings)) was “breakdown of ICG”. For the same compound, the “pathologic evaluation: ICG on the specimen” value (specimen after PDT with ICG) is listed as “breakdown of ICG”.
